Results reported in publication PMC2923778 (Journal of Molecular Biology, 2010).
Results are given in words; binding and its absence hold for the method and conditions named.

T1: mSPSB2(12–224) (murine, UniProt O88838 12-224)
T1 construct: murine SPSB2 (SSB-2), residues 12-224: lacks the first 11 residues and the C-terminal SOCS box; Uniformly 15N-labelled in one NMR experiment; also called mSPSB2ΔSB; 15N-mSPSB2(12–224); source: E. coli Origami B(DE3) pLysS, GST fusion, purified (glutathione-Sepharose, thrombin cleavage, gel filtration)
T1 sequence (looked up): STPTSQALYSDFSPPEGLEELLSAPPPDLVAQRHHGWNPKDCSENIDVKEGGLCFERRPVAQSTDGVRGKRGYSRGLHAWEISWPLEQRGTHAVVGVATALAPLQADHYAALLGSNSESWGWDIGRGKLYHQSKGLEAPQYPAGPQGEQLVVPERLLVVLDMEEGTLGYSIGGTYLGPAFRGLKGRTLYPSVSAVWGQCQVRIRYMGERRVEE

B1: [N70A]hPar-4(64–77) (peptide)
peptide: AAANELANNLPGGA
notes: human prostate apoptosis response protein-4 (hPar-4), residues 64-77, N70A; source: synthetic peptide (GenScript Corporation)
B2: [N71A]hPar-4(64–77) (peptide)
peptide: AAANELNANLPGGA
notes: human prostate apoptosis response protein-4 (hPar-4), residues 64-77, N71A; source: synthetic peptide (GenScript Corporation)

Target: T1, mSPSB2(12–224)
Test: ITC; 100 μM peptide titrated into 10 μM mSPSB protein; 22 °C; 20 mM Tris, 150 mM sodium chloride, 2.5 mM calcium chloride, pH 8.0; single binding site model; both purified

Binder | binding
B1 | no binding (tested: Kd > 50 μM)
B2 | no binding (tested: Kd > 50 μM)
